For assay [1], the target named is Poly (ADP-ribose) polymerase 1 (PARP1), endogenous in 143B cells (human (endogenous in 143B)) (UniProt P09874). The experiment in a line: co-IP; 143B cell lysate, co-IP with anti-PARP1 or control IgG antibodies, western blotting. For orientation: A western blot detects proteins with antibodies after separation by electrophoresis.
The target is the same in assay [2]. Description: co-IP; immunoprecipitation from 143B cells transfected with flag-labeled full-length or truncated ezrin, western blotting; which partner was precipitated is not stated.

Chains of the proteins cited; added tags and fusions are not shown. Lines headed by an entry give the natural chain unless they say otherwise; changes in a name come on top.
UniProt P09874: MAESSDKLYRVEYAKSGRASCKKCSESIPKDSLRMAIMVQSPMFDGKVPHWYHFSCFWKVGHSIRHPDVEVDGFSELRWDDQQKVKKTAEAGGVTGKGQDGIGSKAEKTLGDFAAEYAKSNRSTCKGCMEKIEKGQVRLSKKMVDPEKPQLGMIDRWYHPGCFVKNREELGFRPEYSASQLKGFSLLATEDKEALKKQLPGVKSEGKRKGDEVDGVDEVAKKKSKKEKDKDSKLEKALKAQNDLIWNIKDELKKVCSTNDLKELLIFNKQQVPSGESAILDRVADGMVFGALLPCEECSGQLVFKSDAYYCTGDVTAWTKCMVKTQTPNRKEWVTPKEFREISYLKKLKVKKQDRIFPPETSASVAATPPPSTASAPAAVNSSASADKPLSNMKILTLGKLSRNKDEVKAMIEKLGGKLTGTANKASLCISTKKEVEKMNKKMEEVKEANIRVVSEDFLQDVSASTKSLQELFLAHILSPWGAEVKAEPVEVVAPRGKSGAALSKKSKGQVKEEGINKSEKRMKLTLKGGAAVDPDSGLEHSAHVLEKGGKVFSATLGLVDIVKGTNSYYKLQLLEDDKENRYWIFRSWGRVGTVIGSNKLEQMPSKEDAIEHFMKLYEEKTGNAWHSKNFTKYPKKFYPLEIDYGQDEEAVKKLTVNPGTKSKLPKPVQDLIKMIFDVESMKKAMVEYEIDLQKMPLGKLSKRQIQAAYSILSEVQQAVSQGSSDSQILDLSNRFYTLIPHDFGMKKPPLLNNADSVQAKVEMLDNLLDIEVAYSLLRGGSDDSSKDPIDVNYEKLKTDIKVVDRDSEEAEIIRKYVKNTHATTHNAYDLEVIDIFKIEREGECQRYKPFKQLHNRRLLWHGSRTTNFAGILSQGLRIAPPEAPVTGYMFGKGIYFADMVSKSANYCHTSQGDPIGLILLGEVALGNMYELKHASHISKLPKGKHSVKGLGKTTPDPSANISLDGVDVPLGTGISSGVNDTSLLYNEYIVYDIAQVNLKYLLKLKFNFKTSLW
UniProt P15311: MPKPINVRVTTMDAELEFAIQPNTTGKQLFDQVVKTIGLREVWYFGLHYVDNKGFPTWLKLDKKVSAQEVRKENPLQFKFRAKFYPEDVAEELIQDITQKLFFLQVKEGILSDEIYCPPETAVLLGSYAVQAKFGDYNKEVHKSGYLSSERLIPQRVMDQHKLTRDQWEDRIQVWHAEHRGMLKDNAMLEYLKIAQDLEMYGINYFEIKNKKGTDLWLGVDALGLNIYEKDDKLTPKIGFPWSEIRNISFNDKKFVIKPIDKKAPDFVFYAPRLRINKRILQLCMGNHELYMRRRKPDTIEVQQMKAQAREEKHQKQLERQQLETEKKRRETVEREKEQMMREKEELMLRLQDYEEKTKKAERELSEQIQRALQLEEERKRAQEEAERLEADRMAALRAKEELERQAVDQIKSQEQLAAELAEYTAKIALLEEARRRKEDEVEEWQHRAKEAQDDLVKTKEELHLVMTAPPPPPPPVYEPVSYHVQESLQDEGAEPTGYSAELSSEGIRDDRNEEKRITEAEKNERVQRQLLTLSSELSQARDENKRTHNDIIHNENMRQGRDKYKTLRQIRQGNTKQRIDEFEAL

Results are given in words; binding and its absence hold for the method and conditions named. In cells and extracts the contact can be indirect. Some results given as binding are weak or reduced against the parent protein; the word gives no strength.

Turning to “Ezrin, endogenous in 143B cells (from UniProt P15311 1-586)”, the binding entry in assay [1] is reported as “binds”. “flag-labeled truncated ezrin 298-586aa (from UniProt P15311 298-586) (domain or fragment)”: the binding entry in assay [2] is listed as “binds”. For the substance “flag-labeled ezrin, full length 1-586aa (from UniProt P15311 1-586)”, the binding entry in assay [2] is on record as “binds”.
